One molecule from patent US20130336951A1 can be followed below.

By UniProt entry, the sequences of proteins in these tests, tags left out.
UniProt P10361: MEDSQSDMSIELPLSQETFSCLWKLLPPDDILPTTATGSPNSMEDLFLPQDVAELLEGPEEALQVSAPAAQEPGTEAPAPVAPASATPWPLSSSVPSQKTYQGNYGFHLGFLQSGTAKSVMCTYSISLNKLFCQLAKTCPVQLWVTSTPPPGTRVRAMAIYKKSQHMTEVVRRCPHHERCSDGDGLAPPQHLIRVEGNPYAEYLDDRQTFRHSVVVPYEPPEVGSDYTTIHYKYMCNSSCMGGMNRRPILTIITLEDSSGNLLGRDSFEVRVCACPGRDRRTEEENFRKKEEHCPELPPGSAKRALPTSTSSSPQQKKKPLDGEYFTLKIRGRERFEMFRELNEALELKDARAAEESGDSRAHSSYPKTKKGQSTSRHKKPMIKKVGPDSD

The target in experiment [1] is p53, endogenous protein of rat hippocampus (rat) (UniProt P10361). Nature of the experiment: GST pull-down, Western blot (FIG. 24H).
Experiment [2] shares this target. Nature of the experiment: GST pull-down, Western blot (FIG. 24E-H).

No constants are given. Whether binding was seen depends on the method and setting. In cells and extracts the contact can be indirect. Some results given as binding are weak or reduced against the parent protein; the word gives no strength. Sequences can lack the tags named with a protein.

Turning to IPELNGKLTGMAFRVPTANVSVVDLTCRLE (peptide, not shown: a dimerising Fc or GST) [GST-GAPDH(2-2-1-1) (I221-E250)], the binding entry in experiment [1] and in experiment [2] was “binds” in each case.
